In patent US10144762B2 (priority 2005, dated 2018):

Assay: general procedure: peptide synthesis; HBTU/DIEA (conjugation of peptide-acid to morpholino oligomer)
Conditions: conjugation step, SCX HPLC

5′-(EG3)-C+TTCGA+TAG+TG-3′-(Ac(RAhxR)4AhxB-)
final HPLC purity: 84.7%
